Assay: In vivo oral bioavailability / pharmacokinetics of FUR in rats
Design: species or system Sprague-Dawley rats
Settings: rat
[1] = Sprague-Dawley, plasma, po, 30 mg/kg

AUC (Sprague-Dawley, plasma, iv, 30 mg/kg): 801 µg·h/mL
Cmax [1]: 3.87 µg/mL
Tmax [1]: 2 h
AUC(0-t) (Sprague-Dawley, plasma, po, 30 mg/kg, read-out: AUC0–24): 32.1 µg·h/mL
Cl/F (oral, 30 mg FUR/kg): 0.75 (mg/kg)/(μg/mL)/h
Vd/F (oral, 30 mg FUR/kg): 9.11 (mg/kg)/(μg/mL)
Compound: NS(=O)(=O)c1cc(C(=O)O)c(NCc2ccco2)cc1Cl [FUR, furosemide]

From article PMC7205388, “Per-6-Thiolated Cyclodextrins: A Novel Type of Permeation Enhancing Excipients for BCS Class IV Drugs” (ACS Applied Materials & Interfaces, 2020)
